From patent US11576382B2, “Naphthalene isoxazoline compounds for controlling invertebrate pests” (FMC Corporation, priority 2018, dated 2023)
Some entries share one result that the patent states for a list of compounds.

Key:
Format in all cases: in vivo
[1] = system: diamondback moth (Plutella xylostella (L.)); experiment: Test A: control of diamondback moth, foliar spray on mustard plant; details: assessed after 6 days, very good to excellent levels of control efficacy
[2] = system: fall armyworm (Spodoptera frugiperda (J. E. Smith)); experiment: Test B: control of fall armyworm, foliar spray on corn (maize) plant; details: assessed after 6 days, very good to excellent levels of control efficacy
[3] = system: Western Flower Thrips (Frankliniellla occidentalis (Pergande)); experiment: Test H: control of Western Flower Thrips through contact and/or systemic means; details: Soleil bean plant, assessed after 6 days, very good to excellent levels of control efficacy
[4] = system: potato leafhopper (Empoasca fabae (Harris)); experiment: Test D: control of potato leafhopper through contact and/or systemic means; details: sprayed at 50 ppm; Soleil bean plant; assessed after 6 days
Procedure: Formulation and Spray Methodology for Tests A-H
Test compounds were formulated using a solution containing 10% acetone, 90% water and 300 ppm Activator 90® non-ionic surfactant (Loveland Products, Loveland, Colo., USA). The formulated compounds were applied in 1 mL of liquid through an atomizer nozzle positioned 1.27 cm (0.5 inches) above the top of each test unit. Test compounds were sprayed at the rates indicated, and each test was replicated three times.
For evaluating control of potato leafhopper (Empoasca fabae (Harris)) through contact and/or systemic means, the test unit consisted of a small open container with a 5-6-day-old Soleil bean plant (primary leaves emerged) inside. White sand was added to the top of the soil, and one of the primary leaves was excised prior to application of the test compound.
Test compounds were formulated and sprayed at 250, 50, 10 and 2 ppm. After spraying of the formulated test compound, the test units were allowed to dry for 1 hour before they were post-infested with 5 potato leafhoppers (18-to-21-day-old adults). A black, screened cap was placed on the top of the test unit, and the test units were held for 6 days in a growth chamber at 20° C. and 70% relative humidity. Each test unit was then visually assessed for insect mortality.

Structure (SMILES) | control efficacy: feeding damage (40% or less feeding damage and/or 100% mortality) ([1]; sprayed at 2 ppm) | control efficacy: feeding damage (40% or less feeding damage and/or 100% mortality) ([1]; sprayed at 10 ppm) | control efficacy: feeding damage (40% or less feeding damage and/or 100% mortality) ([2]; sprayed at 10 ppm) | control efficacy: plant damage (30% or less plant damage and/or 100% mortality) ([3]; sprayed at 10 ppm) | also measured
C[C@@H](NC(=O)c1ccc(C2=NOC(c3cc(Cl)c(F)c(Cl)c3)(C(F)(F)F)C2)c2ccccc12)C(N)=O (stereo partly drawn) [Compound 1, N-[(1R)-2-amino-1-methyl-2-oxoethyl]-4-[5-(3,5-dichloro-4-fluorophenyl)-4,5-dihydro-5-(trifluoromethyl)-3-isoxazolyl]-1-naphthalenecarboxamide] | ≤ 40% | ≤ 40% | ≤ 40% | ≤ 30% | control efficacy: feeding damage (40% or less feeding damage and/or 100% mortality) ([1]; sprayed at 50 ppm): ≤ 40%; control efficacy: feeding damage (40% or less feeding damage and/or 100% mortality) ([1]; sprayed at 250 ppm): ≤ 40%; control efficacy: feeding damage (40% or less feeding damage and/or 100% mortality) ([2]; sprayed at 2 ppm): ≤ 40%; control efficacy: feeding damage (40% or less feeding damage and/or 100% mortality) ([2]; sprayed at 50 ppm): ≤ 40%; control efficacy: feeding damage (40% or less feeding damage and/or 100% mortality) ([2]; sprayed at 250 ppm): ≤ 40%; control efficacy: plant damage (30% or less plant damage and/or 100% mortality) ([3]; sprayed at 50 ppm): ≤ 30%; control efficacy: plant damage (30% or less plant damage and/or 100% mortality) ([3]; sprayed at 250 ppm): ≤ 30%
COC[C@H](NC(=O)c1ccc(C2=NOC(c3cc(Cl)c(F)c(Cl)c3)(C(F)(F)F)C2)c2ccccc12)C(=O)NCC(F)(F)F (stereo partly shown) [Compound 6] | ≤ 40% | ≤ 40% | ≤ 40% | – | –
CCNC(=O)[C@H](COC)NC(=O)c1ccc(C2=NOC(c3cc(Cl)c(F)c(Cl)c3)(C(F)(F)F)C2)c2ccccc12 (stereo partly shown) [Compound 7] | ≤ 40% | ≤ 40% | ≤ 40% | ≤ 30% | –
O=C(NCc1ccccn1)c1ccc(C2=NOC(c3cc(Cl)c(F)c(Cl)c3)(C(F)(F)F)C2)c2ccccc12 (stereo not shown) [Compound 15, 4-[5-(3,5-dichloro-4-fluorophenyl)-4,5-dihydro-5-(trifluoromethyl)-3-isoxazolyl]-N-(2-pyridinylmethyl)-1-naphthalenecarboxamide] | ≤ 40% | ≤ 40% | ≤ 40% | ≤ 30% | control efficacy: feeding damage (40% or less feeding damage and/or 100% mortality) ([2]; sprayed at 2 ppm): ≤ 40%
C[C@H](NC(=O)c1ccc(C2=NOC(c3cc(Cl)c(F)c(Cl)c3)(C(F)(F)F)C2)c2ccccc12)c1ncccn1 (stereo partly shown) [Compound 21] | – | ≤ 40% | – | ≤ 30% | –
O=C(NCc1cn[nH]c1)c1ccc(C2=NOC(c3cc(Cl)c(F)c(Cl)c3)(C(F)(F)F)C2)c2ccccc12 (stereo not shown) [Compound 23] | ≤ 40% | ≤ 40% | ≤ 40% | ≤ 30% | –
O=C(NCc1nc[nH]n1)c1ccc(C2=NOC(c3cc(Cl)c(F)c(Cl)c3)(C(F)(F)F)C2)c2ccccc12 (stereo not shown) [Compound 24] | ≤ 40% | ≤ 40% | ≤ 40% | – | –
Cn1cnnc1CNC(=O)c1ccc(C2=NOC(c3cc(Cl)c(F)c(Cl)c3)(C(F)(F)F)C2)c2ccccc12 (stereo not shown) [Compound 25] | – | ≤ 40% | – | ≤ 30% | –
O=C(NCc1ncon1)c1ccc(C2=NOC(c3cc(Cl)c(F)c(Cl)c3)(C(F)(F)F)C2)c2ccccc12 (stereo not shown) [Compound 26] | ≤ 40% | ≤ 40% | – | ≤ 30% | control efficacy: plant damage (30% or less plant damage and/or 100% mortality) ([3]; sprayed at 2 ppm): ≤ 30%
O=C(NCc1nccs1)c1ccc(C2=NOC(c3cc(Cl)c(F)c(Cl)c3)(C(F)(F)F)C2)c2ccccc12 (stereo not shown) [Compound 28] | ≤ 40% | ≤ 40% | ≤ 40% | ≤ 30% | –
O=C(NCc1ncc[nH]1)c1ccc(C2=NOC(c3cc(Cl)c(F)c(Cl)c3)(C(F)(F)F)C2)c2ccccc12 (stereo not shown) [Compound 29] | ≤ 40% | ≤ 40% | ≤ 40% | ≤ 30% | –
O=C(NCc1cnc[nH]1)c1ccc(C2=NOC(c3cc(Cl)c(F)c(Cl)c3)(C(F)(F)F)C2)c2ccccc12 (stereo not shown) [Compound 30] | ≤ 40% | ≤ 40% | ≤ 40% | – | –
O=C(NCc1nccc(C(F)(F)F)n1)c1ccc(C2=NOC(c3cc(Cl)c(F)c(Cl)c3)(C(F)(F)F)C2)c2ccccc12 (stereo not shown) [Compound 32] | – | ≤ 40% | – | – | –
CON=CNC(=O)c1ccc(C2=NOC(c3cc(Cl)c(F)c(Cl)c3)(C(F)(F)F)C2)c2ccccc12 (stereo not shown) [Compound 33, 4-[5-(3,5-dichloro-4-fluorophenyl)-4,5-dihydro-5-(trifluoromethyl)-3-isoxazolyl]-N-[(methoxyimino)methyl]-1-naphthalenecarboxamide] | ≤ 40% | ≤ 40% | ≤ 40% | ≤ 30% | control efficacy: feeding damage (40% or less feeding damage and/or 100% mortality) ([2]; sprayed at 2 ppm): ≤ 40%; control efficacy: plant damage (30% or less plant damage and/or 100% mortality) ([3]; sprayed at 2 ppm): ≤ 30%
COC(=O)CNC(=O)c1ccc(C2=NOC(c3cc(Cl)c(F)c(Cl)c3)(C(F)(F)F)C2)c2ccccc12 (stereo not shown) [Compound 35, N-[[4-[5-(3,5-dichloro-4-fluorophenyl)-4,5-dihydro-5-(trifluoromethyl)-3-isoxazolyl]-1-naphthalenyl]carbonyl]glycine methyl ester] | ≤ 40% | ≤ 40% | – | – | control efficacy: feeding damage (40% or less feeding damage and/or 100% mortality) ([1]; sprayed at 50 ppm): ≤ 40%; control efficacy: feeding damage (40% or less feeding damage and/or 100% mortality) ([1]; sprayed at 250 ppm): ≤ 40%; control efficacy: feeding damage (40% or less feeding damage and/or 100% mortality) ([2]; sprayed at 50 ppm): ≤ 40%; control efficacy: feeding damage (40% or less feeding damage and/or 100% mortality) ([2]; sprayed at 250 ppm): ≤ 40%; control efficacy: plant damage (30% or less plant damage and/or 100% mortality) ([3]; sprayed at 50 ppm): ≤ 30%; control efficacy: plant damage (30% or less plant damage and/or 100% mortality) ([3]; sprayed at 250 ppm): ≤ 30%
COc1ccnc(CNC(=O)c2ccc(C3=NOC(c4cc(Cl)c(F)c(Cl)c4)(C(F)(F)F)C3)c3ccccc23)n1 (stereo not shown) [Compound 53] | ≤ 40% | ≤ 40% | – | – | mortality [4]: at least 80%
COc1cccc(CNC(=O)c2ccc(C3=NOC(c4cc(Cl)c(F)c(Cl)c4)(C(F)(F)F)C3)c3ccccc23)n1 (stereo not shown) [Compound 54] | – | ≤ 40% | – | – | –
COc1ccc(CNC(=O)c2ccc(C3=NOC(c4cc(Cl)c(F)c(Cl)c4)(C(F)(F)F)C3)c3ccccc23)cn1 (stereo not shown) [Compound 56] | ≤ 40% | ≤ 40% | – | – | –
COc1ncccc1CNC(=O)c1ccc(C2=NOC(c3cc(Cl)c(F)c(Cl)c3)(C(F)(F)F)C2)c2ccccc12 (stereo not shown) [Compound 57] | – | ≤ 40% | – | – | –
N#CCCNC(=O)c1ccc(C2=NOC(c3cc(Cl)c(F)c(Cl)c3)(C(F)(F)F)C2)c2ccccc12 (stereo not shown) [Compound 73] | ≤ 40% | ≤ 40% | ≤ 40% | ≤ 30% | control efficacy: plant damage (30% or less plant damage and/or 100% mortality) ([3]; sprayed at 2 ppm): ≤ 30%
CC(CC#N)NC(=O)c1ccc(C2=NOC(c3cc(Cl)c(F)c(Cl)c3)(C(F)(F)F)C2)c2ccccc12 (stereo not shown) [Compound 74] | ≤ 40% | ≤ 40% | ≤ 40% | ≤ 30% | control efficacy: feeding damage (40% or less feeding damage and/or 100% mortality) ([2]; sprayed at 2 ppm): ≤ 40%; control efficacy: plant damage (30% or less plant damage and/or 100% mortality) ([3]; sprayed at 2 ppm): ≤ 30%
N#CC1(NC(=O)c2ccc(C3=NOC(c4cc(Cl)c(F)c(Cl)c4)(C(F)(F)F)C3)c3ccccc23)CC1 (stereo not shown) [Compound 77] | ≤ 40% | ≤ 40% | ≤ 40% | – | –
